Laboratory results: the supplement of paper PMC5949888
± gives the standard deviation of the averaged measurements. Most values lie at the floor of the assay. Slopes are relative: functional sequences can read slightly below zero.

System: Saccharomyces cerevisiae PS128 hsf1 delta, HSF1(1-493) fusion
Test: growth estimate (transactivation domain function in HSF1 fusion, heat-shock survival) (a.u. (slope of normalised read count over time)); higher = stronger growth at 37°C, i.e. more transactivation activity
Details: library: random library

Row | Substance | growth estimate
1 | RCRTLEIHPVEVCSLGHKGP | < -0.25
2 | RCRYLEASHRLEIKAASQIQ | < -0.25
3 | RCSGVFKVSRALWSPVRSMC | < -0.25
4 | RCSLLANGVDSGELGASLP | < -0.25
5 | RCSQSTIKLKERQWTRSRAG | -0.245
6 | RCTASMLLSFGAHQCSR | < -0.25
7 | RCTQFTMDPTTGQQGFDGQN | < -0.25
8 | RCTRFGVNRW | < -0.25
9 | RCTRVDSE | < -0.25
10 | RCVMNLRRGTVRNAHGVINR | < -0.25
11 | RCVPVWGVPCRRA | < -0.25
12 | RCYGKYAELTANESLRSLTQ | < -0.25
13 | RCYVSTSRSTTYSFCDAGFR | < -0.25
14 | RDAFAKHRC | -0.243
15 | RDASSPILPQHVGGCLYYRH | < -0.25
16 | RDAV | < -0.25
17 | RDCETVVAVSERKGEWLAKE | < -0.25
18 | RDCLTVYPAIYDEFLDLQVH | < -0.25
19 | RDCVLRAGVTSIYQVITRRH | < -0.25
20 | RDDASSYLAQS | < -0.25
21 | RDDDVWEYQLISSGPNARSR | < -0.25
22 | RDFAVPTSGSYEHQ | < -0.25
23 | RDFLPKSS | < -0.25
24 | RDGFFVHHLT | < -0.25
25 | RDGLAGAEPPLGYLGGATKQ | < -0.25

Row | Substance | growth estimate
26 | RDGTSSSTRCCFSIVEIPYL | < -0.25
27 | RDGYPCGLLSDSLNGIEVRD | < -0.25
28 | RDHRTGESSWV | < -0.25
29 | RDIASG | < -0.25
30 | RDIFLGSCSWRIRRPISLPR | < -0.25
31 | RDISLAPS | < -0.25
32 | RDIYNSTGAEHATPRDSIAD | < -0.25
33 | RDKSAHPDSGDVLFLTLLSD | 0.0903
34 | RDKVISFVVSAKTYAQ | < -0.25
35 | RDLCMFRRQVDLVGALILSA | < -0.25
36 | RDLD | < -0.25
37 | RDLGPETVCYGAIGGRVIRH | < -0.25
38 | RDLVIGCYSAWALGHKVLTP | < -0.25
39 | RDMGPGMRRPHMVAALFPRQ | < -0.25
40 | RDNIG | < -0.25
41 | RDNPSMKYL | < -0.25
42 | RDNSVQLHK | < -0.25
43 | RDP | < -0.25
44 | RDPL | < -0.25
45 | RDPLIITSLFCAIRLVWESR | < -0.25
46 | RDPRRRL | < -0.25
47 | RDRCGSRQAMLSSYWGQHVP | < -0.25
48 | RDRHGY | < -0.25
49 | RDS | -0.243 ± 0.0099
50 | RDSGAIGYHLEYSARKEIRA | < -0.25

Row | Substance | growth estimate
51 | RDSSFHHTNFLLSAWRQR | < -0.25
52 | RDSVRVYWDGRAGE | < -0.25
53 | RDVVDLVTTSTGRISRVSDW | < -0.25
54 | RDYQCRVFPLGETYSTLNLE | < -0.25
55 | REAFHEEPSVLRFIPPDVHD | < -0.25
56 | REALKFSAHKQWHRGCECFG | < -0.25
57 | REAVGRETTDPVEPAPPWKA | < -0.25
58 | RECSSTNYTLEATSKSFLPY | < -0.25
59 | RECVRNDTDRTWGLVRIPVT | < -0.25
60 | REEDSL | < -0.25
61 | REFDRDRVAAVMIRVQPRAP | < -0.25
62 | REFHSVQSLGA | < -0.25
63 | REFK | < -0.25
64 | REFRPLLAGWCMLGGSIELV | < -0.25
65 | REGGVHHANYTEGVLLWTTN | -0.139
66 | REHPSRPGGELFS | < -0.25
67 | REIHEIATAQGDLKSESSGR | < -0.25
68 | REIRLVGTT | < -0.25
69 | REKDMNVDRVRLLVPWV | < -0.25
70 | RELA | < -0.25
71 | RELAHCSGTSA | < -0.25
72 | REMLGSSILSWVARDEDTGS | < -0.25
73 | RENGSLVENWQLRDNQESPS | < -0.25
74 | REPGDTKARQRLAGIFAPTR | < -0.25
75 | REPGILLLRDLAGCTECVCL | < -0.25

Row | Substance | growth estimate
76 | REPKTPTP | < -0.25
77 | REQGGTNTCFRLEYGARA | < -0.25
78 | REQPAGR | < -0.25
79 | RERI | < -0.25
80 | RERNIRFI | < -0.25
81 | RESVAPLVHRAYIDESGKVV | < -0.25
82 | RESVFS | < -0.25
83 | RESVVARSGNTWWIG | < -0.25
84 | RETADQPCSPECYI | < -0.25
85 | RETTQRHLIF | < -0.25
86 | REVLRRLAGGSVESWLQECS | < -0.25
87 | REVPQVTGTIYVSKRHACLL | < -0.25
88 | REVYMPRVRRDSVCLLAF | < -0.25
89 | REYRAAESESGSFKASPSPR | < -0.25
90 | RFADPKRILSNSDTDGVVYV | < -0.25
91 | RFAEASHGSYCVIDRLCLGQ | < -0.25
92 | RFAGAIRISPTNIFRGSRPG | < -0.25
93 | RFDAWISVVKS | < -0.25
94 | RFDVEEARVS | < -0.25
95 | RFELCTGL | < -0.25
96 | RFES | < -0.25
97 | RFFGHYGKLRTWRKDGS | < -0.25
98 | RFFISQRYSELAFGLKFRTS | < -0.25
99 | RFFRF | < -0.25
100 | RFGGGTKFAAS | < -0.25

An excerpt of these results, as a markdown table.

| Row | Substance | growth estimate |
| --- | --- | --- |
| 89 | REYRAAESESGSFKASPSPR | < -0.25 |
| 90 | RFADPKRILSNSDTDGVVYV | < -0.25 |
| 91 | RFAEASHGSYCVIDRLCLGQ | < -0.25 |
| 92 | RFAGAIRISPTNIFRGSRPG | < -0.25 |

(continued)

Row | Substance | growth estimate
101 | RFGNEVYVHSELQVSTTETL | < -0.25
102 | RFKCLVLGRKAGQLYSCAET | < -0.25
103 | RFLADAPGIPGPKLPHGHLW | < -0.25
104 | RFLGIMAIHHATCGPGRGSS | < -0.25
105 | RFLMTRCRCLGGRNLYLLMS | < -0.25
106 | RFLWNIYSNGPLRVTLSVTG | < -0.25
107 | RFNFIICAATDHSELHLRKR | < -0.25
108 | RFPGCWCLRPDSRGNLSPSV | < -0.25
109 | RFQRRIRRSPSRLFLGEASR | < -0.25
110 | RFRCRKGHRQAFTVPRLASD | < -0.25
111 | RFRSQGSPWALVHVKFYSPA | < -0.25
112 | RFRVCSISGVHLAVHGCRID | -0.174
113 | RFSRLTTQSVGRRDQEHLLL | < -0.25
114 | RFSSKLPSCPDGLERKIPMS | < -0.25
115 | RFTCYSWSTDRTCVHYDVGG | < -0.25
116 | RFTLRGVTDPGIHIDTSLLV | < -0.25
117 | RFTLVQAIATGWYEPRSDCV | -0.219
118 | RFWQMCHS | < -0.25
119 | RFY | < -0.25
120 | RFYGGCTSLLYPIRV | < -0.25
121 | RFYS | < -0.25
122 | RGADRGYH | < -0.25
123 | RGAEDCRV | < -0.25
124 | RGAS | < -0.25
125 | RGASASQGGVYPDRVTTSRI | < -0.25

Row | Substance | growth estimate
126 | RGASDSVDNRAGSCSRNRRT | < -0.25
127 | RGATVDLNSEVTKNLT | < -0.25
128 | RGCGTCPT | < -0.25
129 | RGCL | -0.246
130 | RGCLRI | < -0.25
131 | RGCSAD | < -0.25
132 | RGCTTQGPM | < -0.25
133 | RGD | < -0.25
134 | RGECVLSDLNGSKDDDNAPS | -0.243
135 | RGEGNESWYAE | 0.16
136 | RGEHGQKYPAKSGVMNRYDS | -0.246
137 | RGERLAGTWYFI | -0.201
138 | RGFGIR | < -0.25
139 | RGFGSFNPIPNAADLGRCVY | < -0.25
140 | RGFGVASVYCSFSYGVVSRI | < -0.25
141 | RGFVKRLLTGAAGLATEQQP | < -0.25
142 | RGGFSSEHKGQ | < -0.25
143 | RGGGLSPRSGLFSPGTSVQ | < -0.25
144 | RGGS | < -0.25
145 | RGGYKSQPTEQLY | < -0.25
146 | RGIAAGLKILGGRRDRLGAL | < -0.25
147 | RGIAWVALTFRDVQLGEGAH | < -0.25
148 | RGIDLSTGAEREPMREALRF | < -0.25
149 | RGIHCPVTAHVSRGPAECSV | < -0.25
150 | RGIKRAASRVSVRWDV | < -0.25

Row | Substance | growth estimate
151 | RGINLILARRLVHPLRATPT | < -0.25
152 | RGIRLVACQHSSNATLSCGH | < -0.25
153 | RGK | < -0.25
154 | RGKKGHVSARLPF | < -0.25
155 | RGKSPQET | < -0.25
156 | RGLCV | -0.203
157 | RGLFRRQV | < -0.25
158 | RGLPKGAKSGTPDVGKTLRM | < -0.25
159 | RGLQCFFQLIAQPGWVLKPR | < -0.25
160 | RGLSCRLGPQVWQVTKQ | < -0.25
161 | RGMHYGRRICRSHSVGTHAA | < -0.25
162 | RGMRQARLDHPLFGRGMQSE | < -0.25
163 | RGNCSEDRHRIGRSRYGREM | < -0.25
164 | RGNICSLNV | < -0.25
165 | RGPGHVAISRQWVCTAGLSG | < -0.25
166 | RGPLLYRYYEQ | < -0.25
167 | RGPPCVGYLVKAS | < -0.25
168 | RGPSSRSWDKRQITHRAPDH | < -0.25
169 | RGQTPLSSVTQPSHPGCLAS | < -0.25
170 | RGQTRYLPCRYLLTHPGKVY | < -0.25
171 | RGR | -0.248 ± 0.003
172 | RGRCSLSRSQ | < -0.25
173 | RGRDRMFKLQGFVHTKGLAP | < -0.25
174 | RGRFSAVWTVVTEGSNLSRL | < -0.25
175 | RGRIMCLENSKGKSQIQFTP | < -0.25

Row | Substance | growth estimate
176 | RGRLETPQ | < -0.25
177 | RGRLGLSDGQ | < -0.25
178 | RGRLIECRSSRRR | < -0.25
179 | RGRLRSSAPTS | < -0.25
180 | RGRN | < -0.25
181 | RGRQ | < -0.25
182 | RGRRIDRAVALNQMVVEWIQ | < -0.25
183 | RGRSHFPIMRALVAAYANSD | < -0.25
184 | RGRSVQLLLLIVVGGQNLNL | < -0.25
185 | RGRSWSCS | < -0.25
186 | RGRVI | < -0.25
187 | RGSARSQPLCLSSYAVTWRG | < -0.25
188 | RGSCGGDVM | < -0.25
189 | RGSFHTERGPPGIFRHSLGE | < -0.25
190 | RGSFRSCPRRVSRLLLGAGP | < -0.25
191 | RGSGPARQ | < -0.25
192 | RGSGQNLMSLAYPIG | < -0.25
193 | RGSMLNVASAISDEAILP | < -0.25
194 | RGSRLCAGIIAVVFFSQKGV | < -0.25
195 | RGSSDGPV | < -0.25
196 | RGSSRMG | < -0.25
197 | RGSVWSIEWPGTGLATS | < -0.25
198 | RGT | < -0.25
199 | RGTIR | < -0.25

Some values from the list:
RGSFHTERGPPGIFRHSLGE – growth estimate: < -0.25
RDAFAKHRC – growth estimate: -0.243
RGRFSAVWTVVTEGSNLSRL – growth estimate: < -0.25
RELAHCSGTSA – growth estimate: < -0.25
REFRPLLAGWCMLGGSIELV – growth estimate: < -0.25
